# According to patent US20240018129A1, “COMPOUNDS AS PU. 1 INHIBITORS” (PEKING UNIVERSITY, priority 2020, published 2024):
# At least one compound was matched to its structure with a doubt left.
# Tested on: T-ALL blast cells and TIM-3-high LICs
# Assay: Pten-null T-ALL mouse model, compound I-1 and/or rapamycin treatment
structure (smiles),measurement,setting,value
CO[C@H]1C[C@@H]2CC[C@@H](C)[C@@](O)(O2)C(=O)C(=O)N2CCCC[C@H]2C(=O)O[C@H]([C@H](C)C[C@@H]2CC[C@@H](O)[C@H](OC)C2)CC(=O)[C@H](C)/C=C(\C)[C@@H](O)[C@@H](OC)C(=O)[C@H](C)C[C@H](C)/C=C/C=C/C=C/1C [rapamycin],reduction of proportion of blasts (in words),"after two days' treatment, bone marrow, spleen and thymus",great efficiency
same,organ morphology (H&E staining) compared with T-ALL group,"treated at blast crisis stage for one month, thymus and spleen",improvement of the therapeutic effects
